These are yes or no findings as the source states them, for the method shown. Some entries that bind do so weakly or less than the wild type. Sequences can lack the tags named with a protein.
Molecular target: T1, Human ErbB4 extracellular part fused to Fc of human IgG1 (human) (UniProt Q15303)
T1 sequence (looked up): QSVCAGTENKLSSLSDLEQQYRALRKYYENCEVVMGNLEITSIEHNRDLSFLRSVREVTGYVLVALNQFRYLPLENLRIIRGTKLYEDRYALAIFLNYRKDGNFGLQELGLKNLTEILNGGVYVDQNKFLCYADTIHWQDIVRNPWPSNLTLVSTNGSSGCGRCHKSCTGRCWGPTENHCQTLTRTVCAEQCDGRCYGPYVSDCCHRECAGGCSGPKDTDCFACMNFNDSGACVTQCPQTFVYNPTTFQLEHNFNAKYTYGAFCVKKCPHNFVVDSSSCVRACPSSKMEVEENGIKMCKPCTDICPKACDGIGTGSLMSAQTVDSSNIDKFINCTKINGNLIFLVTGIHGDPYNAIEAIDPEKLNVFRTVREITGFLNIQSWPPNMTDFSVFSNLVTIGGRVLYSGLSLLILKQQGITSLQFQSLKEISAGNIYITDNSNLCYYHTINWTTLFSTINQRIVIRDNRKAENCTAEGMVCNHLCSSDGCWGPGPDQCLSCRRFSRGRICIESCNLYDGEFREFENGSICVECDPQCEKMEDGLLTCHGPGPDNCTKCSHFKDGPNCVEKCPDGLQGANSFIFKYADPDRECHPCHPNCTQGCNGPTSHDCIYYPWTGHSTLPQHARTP
Experiment: SPR; members taken from Table 1

- binding: binds
Binder: FVYNPTTFQLEMNFNAK (four monomers coupled to a lysine backbone (tetrameric dendrimer)) [Inherbin4 peptide, tetrameric dendrimer]

From patent US20090092617A1 (K BENHAVNS UNIVERSITET, published 2009)
